This assay deals with FLAG-tagged two NZF domains of HOIP (NZF1/2) (human). The assay is described as follows: co-IP; tagged proteins co-transfected into HEK293 cells, lysed after 48 h (50 mM Tris-HCl pH 7.5, 10 mM MgCl2, 100 mM NaCl, 0.5% Nonidet P40, 10% glycerol); immunoprecipitated overnight at 4 °C with the indicated antibody plus protein A/G agarose or anti-FLAG M2 gel; Western blot.

These are yes or no findings as the source states them, for the method shown. Binding seen in cells or lysates may run through a third protein. Binding can be weak; no strength is given. Tags and fused reporters may be left off the sequences shown.

B1: HA-tagged PKP2 N348 (domain or fragment, UniProt Q99959-2 1-348)
chain: MAAPGAPAEYGYIRTVLGQQILGQLDSSSLALPSEAKLKLAGSSGRGGQTVKSLRIQEQVQQTLARKGRSSVGNGNLHRTSSVPEYVYNLHLVENDFVGGRSPVPKTYDMLKAGTTATYEGRWGRGTAQYSSQKSVEERSLRHPLRRLEISPDSSPERAHYTHSDYQYSQRSQAGHTLHHQESRRAALLVPPRYARSEIVGVSRAGTTSRQRHFDTYHRQYQHGSVSDTVFDSIPANPALLTYPRPGTSRSMGNLLEKENYLTAGLTVGQVRPLVPLQPVTQNRASRSSWHQSSFHSTRTLREAGPSVAVDSSGRRAHLTVGQAAAGGSGNLLTERSTFTDSQLGNAD
In the case of B1, the binding entry is recorded as “binds”.

Source of the values: publication PMC8585052.
